Test results from PMC8123387.
No constants are given. Whether binding was seen depends on the method and setting. Binding seen in cells or lysates may run through a third protein. These calls come from enrichment with a bait or labelling near it, and not all partners need be listed.

By UniProt entry, the sequences of proteins in these tests, tags left out. Residues count along the entry.
UniProt Q9UMX0: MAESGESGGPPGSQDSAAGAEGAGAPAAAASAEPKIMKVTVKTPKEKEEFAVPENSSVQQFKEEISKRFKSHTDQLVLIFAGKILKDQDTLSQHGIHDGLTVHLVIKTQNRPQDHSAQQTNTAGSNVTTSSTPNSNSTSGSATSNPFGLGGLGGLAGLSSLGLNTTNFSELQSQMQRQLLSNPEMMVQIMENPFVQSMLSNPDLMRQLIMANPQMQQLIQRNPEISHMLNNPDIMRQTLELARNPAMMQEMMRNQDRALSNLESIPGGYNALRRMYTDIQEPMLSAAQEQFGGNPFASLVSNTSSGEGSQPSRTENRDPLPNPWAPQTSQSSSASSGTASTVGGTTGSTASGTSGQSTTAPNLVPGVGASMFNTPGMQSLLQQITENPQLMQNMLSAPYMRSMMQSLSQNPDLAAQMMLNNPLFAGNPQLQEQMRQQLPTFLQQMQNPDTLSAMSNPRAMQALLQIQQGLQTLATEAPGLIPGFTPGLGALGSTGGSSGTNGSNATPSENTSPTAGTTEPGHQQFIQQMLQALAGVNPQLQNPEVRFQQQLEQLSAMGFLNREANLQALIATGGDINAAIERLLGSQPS
UniProt Q08722, residues 19-323: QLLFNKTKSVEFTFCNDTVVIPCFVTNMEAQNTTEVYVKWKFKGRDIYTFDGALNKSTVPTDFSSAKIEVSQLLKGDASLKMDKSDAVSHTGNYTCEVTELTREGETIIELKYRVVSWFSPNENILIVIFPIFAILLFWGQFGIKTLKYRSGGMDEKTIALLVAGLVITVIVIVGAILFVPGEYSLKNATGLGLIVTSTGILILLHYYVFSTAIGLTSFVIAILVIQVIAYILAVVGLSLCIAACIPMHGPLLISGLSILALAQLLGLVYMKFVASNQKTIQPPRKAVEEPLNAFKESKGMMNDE
UniProt O14980: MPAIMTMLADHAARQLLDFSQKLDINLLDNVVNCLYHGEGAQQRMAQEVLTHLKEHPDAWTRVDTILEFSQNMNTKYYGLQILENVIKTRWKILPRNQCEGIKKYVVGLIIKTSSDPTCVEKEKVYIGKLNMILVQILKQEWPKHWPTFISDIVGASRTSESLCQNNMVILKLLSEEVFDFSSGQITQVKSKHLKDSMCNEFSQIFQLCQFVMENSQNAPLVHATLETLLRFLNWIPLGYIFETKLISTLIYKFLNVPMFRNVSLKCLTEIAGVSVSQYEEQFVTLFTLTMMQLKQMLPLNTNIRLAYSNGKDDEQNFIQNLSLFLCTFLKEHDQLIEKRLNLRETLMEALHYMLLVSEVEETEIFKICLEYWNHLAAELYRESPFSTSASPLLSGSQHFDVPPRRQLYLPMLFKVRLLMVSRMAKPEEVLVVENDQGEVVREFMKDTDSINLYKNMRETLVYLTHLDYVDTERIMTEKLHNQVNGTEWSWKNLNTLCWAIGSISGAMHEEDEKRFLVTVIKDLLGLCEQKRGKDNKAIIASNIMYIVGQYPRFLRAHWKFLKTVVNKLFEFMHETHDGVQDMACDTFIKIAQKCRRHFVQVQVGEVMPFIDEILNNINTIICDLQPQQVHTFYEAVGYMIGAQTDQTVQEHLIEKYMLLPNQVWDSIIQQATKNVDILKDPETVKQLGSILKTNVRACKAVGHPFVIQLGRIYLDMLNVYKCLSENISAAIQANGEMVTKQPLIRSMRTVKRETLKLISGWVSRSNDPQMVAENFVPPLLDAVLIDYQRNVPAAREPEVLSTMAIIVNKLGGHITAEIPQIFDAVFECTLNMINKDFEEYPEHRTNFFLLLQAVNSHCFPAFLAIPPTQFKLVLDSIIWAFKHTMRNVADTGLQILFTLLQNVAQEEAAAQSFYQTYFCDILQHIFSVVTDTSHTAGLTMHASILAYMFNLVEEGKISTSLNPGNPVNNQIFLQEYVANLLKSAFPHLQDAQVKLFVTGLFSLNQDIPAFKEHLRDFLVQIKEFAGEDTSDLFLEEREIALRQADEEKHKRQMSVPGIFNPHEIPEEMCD

What was measured:
[1] = molecular target: ubiquilin-1 (human (endogenous in T cells)) (UniProt Q9UMX0); assay: affinity purification with mass spectrometry + co-IP; T cells; identified by mass spectrometry and confirmed by co-immunoprecipitation; interaction of CD47 with exportin-1 inhibited by leptomycin B
[2] = molecular target: CD47 (human (endogenous in T cells)) (UniProt Q08722); assay: as above

Substance: exportin-1 (from UniProt O14980 1-1071)
- binding [1]: binds
- binding [2]: binds
